Results published in patent publication US10073097B2, “Diagnostic assays and methods of treating pneumonia, sepsis and systemic inflammatory response syndrome” (priority 2012, dated 2018).

Experiment: Limulus Amoebocyte Lysate Assay for endotoxin associated with NDMPs
Set-up: species or system mice
Conditions: endotoxin associated with NDMPs generated by the treatment

Substance	[Endotoxin]
thioglycolate [3% TGA]	26.4 ± 16.5 EU/mL
peptidoglycan [PepG]	37.4 ± 31 EU/mL
lipopolysaccharide [LPS]	131.9 ± 25.7 EU/mL
